“And” between values parts separate entries of the source, which are not always exact repeats. Equal entries are not always repeated. Out of some 240,000 compounds screened, about 1,300 (0.54%) were called active. This list was built around the results that the source calls inconclusive (neither active nor inactive); the mix of calls is not that of the screen. Calls come from the whole dose curve; as a rule, active = well fitted inhibition curve with a large enough effect; inconclusive = small, poorly fitted or top-dose-only effect; inactive = flat fitted curve, though single readings scatter. A potency beside an inconclusive call is a rough fit, not a confirmed value.
target: ATP-dependent DNA helicase Q1 (Homo sapiens) (UniProt P46063); assay: qHTS Assay for Inhibitors of RecQ-Like Dna Helicase 1 (RECQ1); conditions: RECQ1 DNA unwinding, red fluorescence kinetic read; series mostly up to 57.3 µM; note: nearly all actives have a fitted effect of over 30% in size
From the text: Survival of cells and the faithful propagation of the genome depend on elaborate mechanisms of detecting and repairing DNA damage. Treatment of advanced cancer relies on radiation therapy or chemotherapy, which kill cancer cells by causing extensive DNA damage. It is often found, that cancer cells develop resistance to therapy through enhanced activity of DNA repair functions; this has led to an increased interest in developing drugs that interfere with DNA repair, which could sensitize cancer cells to conventional therapy.
This validation qHTS assay pertains to human RECQ1, which is important in resolving abnormal DNA structures formed during replication or homologous recombination. Shutting down the expression of RECQ1 leads to chromosomal instability and higher radiation sensitivity in cultured cells.
The validation assay was a fluorescence quenching based kinetic qHTS for RECQ1 Helicase DNA unwinding. The activity was measured as ATP-dependent separation of a 20-bp DNA duplex extended by 30-nt single-stranded tails (forked duplex). The forked DNA substrate was tagged with rhodamine fluorophore (carboxytetramethyl rhodamine, TAMRA) and BHQ-2 (Black Hole Quencher 2) dark quencher. Strand separation results in an increase in the fluorescence of TAMRA (excitation 525 nm, emission 598 nm). This substrate construct operates in a red-shifted region where very few compound library members have been noted to fluoresce (PubChem AIDs 593 and 594). An additional feature of the assay is the inclusion of 2.5 ug/ml poly (dIdC), to reduce interference by compounds such as DNA intercalators, a major source of false inhibitors.
Opher Gileadi, Structural Genomics Consortium, University of Oxford
Screening Center PI: Austin, C.P.
Screening Center: NIH Chemical Genomics Center [NCGC]
Three uL of reaction buffer (25 mM Tris-HCl (pH 8.0), 5 mM NaCl, 2 mM MgCl2, 1mM DTT, 0.01% Tween- 20, and 2.5 ug/ml poly(dI-dC), including enzyme (50 nM RECQ1T1), were dispensed into a 1536-well Greiner black assay plate via solenoid-valve based nanoliter dispensers. Compounds (23 nl each in columns 5-48) and control (23 nl each in column 2 as dose-response) were transferred via a Kalypsys pintool equipped with a 1536-pin array. The plates were incubated for 15 min at room temperature, and then 1 ul of substrates (200 nM DNA and 2 mM ATP, final concentrations) was added to start the reaction. The plate was transferred into a ViewLux high-throughput CCD imager where the reaction progress was measured in a discontinuous kinetic mode (two reads spaced 2 hours apart, with intermediate room temperature incubation of the covered assay plate) by using standard red-fluorescence optics (excitation filter 525 nm, emission filter 598 nm). Enzyme-free and vehicle (DMSO) controls were included for signal normalization.
Potency is the fitted concentration of half-maximal effect.

By UniProt entry, the sequences of proteins in these tests, tags left out. Where a name states a change or a piece, a line headed by the entry shows the natural chain unless it says otherwise.
UniProt P46063: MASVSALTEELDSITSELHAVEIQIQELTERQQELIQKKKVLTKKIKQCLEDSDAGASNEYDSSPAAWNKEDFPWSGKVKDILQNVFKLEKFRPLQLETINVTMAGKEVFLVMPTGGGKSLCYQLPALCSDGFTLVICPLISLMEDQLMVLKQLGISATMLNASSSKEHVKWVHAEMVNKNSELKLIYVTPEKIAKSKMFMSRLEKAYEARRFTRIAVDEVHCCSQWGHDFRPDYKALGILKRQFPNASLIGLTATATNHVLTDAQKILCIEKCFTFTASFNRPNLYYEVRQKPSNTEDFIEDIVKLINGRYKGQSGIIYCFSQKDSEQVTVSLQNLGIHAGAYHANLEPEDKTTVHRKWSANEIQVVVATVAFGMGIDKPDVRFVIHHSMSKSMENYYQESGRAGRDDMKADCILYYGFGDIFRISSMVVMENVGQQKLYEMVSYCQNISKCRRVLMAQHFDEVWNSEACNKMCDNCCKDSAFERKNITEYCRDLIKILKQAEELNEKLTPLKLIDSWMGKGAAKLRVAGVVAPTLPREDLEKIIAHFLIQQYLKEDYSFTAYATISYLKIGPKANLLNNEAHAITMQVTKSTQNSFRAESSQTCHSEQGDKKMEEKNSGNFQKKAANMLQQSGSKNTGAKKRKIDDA

| Structure (SMILES) | Potency |
| --- | --- |
| CCn1c(O)c(C=C2N=c3ccccc3=N2)sc1=S | inactive |
| O=c1c(/C=C(\O)c2ccccc2)nc2ccccc2n1-c1ccccc1 | inconclusive: 14.1 µM [inhibitor, partial curve, poor fit] |
| COC(=O)C1=C(C(=O)OC)[C@@H]2Nc3ccccc3[C@@]23C[C@@H](C(=O)OC)N(S(=O)(=O)c2ccc(C)cc2)C3=N1 | inconclusive: 3.55 µM [inhibitor, single point] |
| CCOC(=O)c1csc(-c2ccc(OC)c(OC)c2)n1 | inactive |
| CC(C)c1ccc(C2C3=C(COC3=O)Nc3cc4c(cc32)OCO4)cc1 (centres undefined) | inconclusive: 35.5 µM [inhibitor, single point] |
| O=C(O)c1cccc(Cn2c(Cl)c(/C=N/NC(=O)c3cc4ccccc4cc3O)sc2=O)c1 | active: 4.47 µM |
| CCC1C/C(=C/c2ccco2)C(=O)/C(=C/c2ccco2)C1 (centres undefined) | inconclusive: 35.5 µM [inhibitor, single point] |
| Cc1ccccc1NS(=O)(=O)c1cc(C(=O)N2CCc3ccccc3C2)ccc1C | inconclusive: 22.4 µM [inhibitor, partial curve, poor fit] |
| N#CC1=C(N)SC(N)=C(C#N)C1CCC1CCCCC1 | inconclusive: 39.8 µM [inhibitor, partial curve] |
| c1ccc(Cn2c(SCc3cn4cccnc4n3)nnc2-c2ccco2)cc1 | inactive |
| Cc1ccnc(NC(=O)CCC(=O)N(CC(=O)NC(C)(C)C)C2CCCC2)c1 | inconclusive: 7.08 µM [inhibitor, single point] |
| Cc1ccccc1-c1n[nH]c(=S)n1/N=C/C=C/c1ccco1 | inconclusive: 39.8 µM [inhibitor, single point] |
| COC(=O)C1=C(C(=O)OC)C(c2ccccc2O)c2sc(=O)[nH]c2S1 (centres undefined) | inconclusive: 11.2 µM [inhibitor, partial curve] |
| CC(C)Cc1nc2ccccc2[nH]1 | inactive |
| O=c1oc2ccccc2c2oc3cc(O)c(O)cc3c12 | active: 11.2 µM and active: 25.1 µM |
| Cc1cc(=O)oc2cc(OCC(=O)N3CCOCC3)ccc12 | inconclusive: 35.5 µM [inhibitor, single point] |
| COC(=O)C1=NN(C(=O)c2ccc(Cl)cc2)C(O)(c2ccccc2)C1 (centres undefined) | inactive |
| CCCc1cc(=O)[nH]c(/N=C(/NC(=O)C(C)N2C(=O)c3ccccc3C2=O)Nc2ccccc2)n1 (centres undefined) | inconclusive: 0.0316 µM [inhibitor, full curve] |
| COc1ccc(C(=O)/C=C/c2ccccc2)c(O)c1 | inconclusive: 10 µM [inhibitor, partial curve] |
| Cc1cccc(NC(=S)NCc2cccs2)c1 | inactive |
| NC(=O)NCCCC(NC(=O)c1ccc(C#CC2(O)CCCCC2)cc1)C(=O)O (centres undefined) | inactive |
| C=CC1=C(C(=O)O)N2C(=O)[C@@H](NC(=O)/C(=N\OCC(=O)O)c3csc(N)n3)[C@@H]2SC1 | inactive |

| Structure (SMILES) | Potency |
| --- | --- |
| Cc1c2c(n3c(nc4ccccc43)c1C#N)N(CCCN(C)C)CC2 | inconclusive: 39.8 µM [inhibitor, single point] |
| Clc1ccc(-n2cnnn2)cc1 | inactive |
| Cc1c(CCOC(=O)c2cc([N+](=O)[O-])cc([N+](=O)[O-])c2)sc[n+]1CC(=O)c1ccc(Br)cc1 | inconclusive: 31.6 µM [inhibitor, single point] |
| CN(C)CCn1c(=O)n(Cc2ccco2)c(=O)c2c3c(sc21)CCCCC3 | inactive |
| N#Cc1c(NC(=O)c2ccccc2Cl)n(Cc2ccccc2)c2nc3ccccc3nc12 | inconclusive: 35.5 µM [inhibitor, single point] |
| Cc1cc(C(F)(F)F)n2[nH]c(=O)c(N=Nc3ccccc3)c2n1 | active: 10 µM |
| Cc1nc(NC(=O)COC(=O)c2ccc(S(=O)(=O)N3CCc4ccccc4C3)cc2)c(Cl)cc1Cl | inconclusive: 8.91 µM [inhibitor, single point] |
| CC(C)(C)SCCNC(=O)CSCc1ccc([N+](=O)[O-])cc1 | inactive |
| COc1ccc(NC(=O)c2cc3c(s2)CCC3)cc1S(=O)(=O)N1CCOCC1 | inconclusive: 15.8 µM [inhibitor, partial curve] |
| CCCn1c(SCC(=O)NCC2CCCO2)nc2c1c(=O)n(C)c(=O)n2C (centres undefined) | inconclusive: 0.891 µM [inhibitor, single point] |
| O=C(c1ccc(S(=O)(=O)c2cccc(Cl)c2)c([N+](=O)[O-])c1)N1CCN(Cc2ccccc2)CC1 | inactive |
| COc1ccc(C(C)=O)cc1COC(=O)c1ccc(N)c([N+](=O)[O-])c1 | inconclusive: 25.1 µM [inhibitor, partial curve] |
| NCCCNCCCCNCCCN | inconclusive: 31.6 µM [inhibitor, single point] |
| O=C(Nc1nnc(COc2ccc(Cl)cc2)s1)c1cccs1 | inactive |
| Cc1[nH]c2ccccc2c1/C=N/NC(=O)c1cc(-c2ccccc2)n[nH]1 | inconclusive: 39.8 µM [inhibitor, single point] |
| Cc1ccccc1NC(=O)CCn1c(=O)oc2ccccc21 | inconclusive: 0.178 µM [inhibitor, full curve] |
| O=C(NCc1ccc2c(c1)OCO2)C1CCCN(S(=O)(=O)c2cccnc2)C1 (centres undefined) | inconclusive: 39.8 µM [inhibitor, single point] |
| Fc1ccc(-c2nc3ccccc3c3nc4ccccc4n23)cc1 | inactive |
| N#C/C(=C\c1c[nH]c2ccccc12)C(=O)c1ccc(O)c(O)c1 | active: 11.2 µM |
| O=C(NCc1ccccc1)c1ccc2nc(-c3ccco3)c(-c3ccco3)nc2c1 | inconclusive: 35.5 µM [inhibitor, single point] |
| N=c1c(C(=O)NCc2ccc(F)cc2)cc2c(=O)n3ccccc3nc2n1Cc1cccnc1 | inconclusive: 31.6 µM [inhibitor, partial curve, poor fit] |
| COc1ccccc1/C=N/NC(=O)c1ccccc1Cl | inactive |
| COC(=O)[C@H](C)NC(=O)Nc1ccc(C)c(C)c1 | inconclusive: 3.98 µM [inhibitor, partial curve] |

Laid out differently: results already given.
Fc1ccc(-c2nc3ccccc3c3nc4ccccc4n23)cc1
  Potency: inactive
N#C/C(=C\c1c[nH]c2ccccc12)C(=O)c1ccc(O)c(O)c1
  Potency: active: 11.2 µM
O=C(NCc1ccccc1)c1ccc2nc(-c3ccco3)c(-c3ccco3)nc2c1
  Potency: inconclusive: 35.5 µM [inhibitor, single point]
N=c1c(C(=O)NCc2ccc(F)cc2)cc2c(=O)n3ccccc3nc2n1Cc1cccnc1
  Potency: inconclusive: 31.6 µM [inhibitor, partial curve, poor fit]

Further records follow.

| Structure (SMILES) | Potency |
| --- | --- |
| O=C(N=Nc1c(O)[nH]c2ccc([N+](=O)[O-])cc12)c1ccccc1[N+](=O)[O-] | inactive |
| C=CCn1cc(C(=O)NCc2ccc(Cl)cc2)c(=O)c2cc(S(=O)(=O)N(CC)CC)ccc21 | inconclusive: 0.708 µM [inhibitor, single point] |
| Cc1oc2c(O)c(O)ccc2c(=O)c1-c1ccccc1 | active: 10 µM |
| CCN(CC)S(=O)(=O)c1cc(NC(=O)Cn2ncc(Cl)c(Cl)c2=O)ccc1C | inconclusive: 20 µM [inhibitor, partial curve] |
| COC(=O)CNC(=O)CCCCC(=O)NCC(=O)OC | inconclusive: 7.94 µM [inhibitor, full curve, poor fit] |
| COc1ccc(/C=N/NC(=O)C2C(=O)NCC2c2ccccc2)c(OC)c1 (centres undefined) | inactive |
| O=C(O)c1cc2c(s1)-c1ccccc1OC2 | inactive |
| O=C(O)/C=C/C(=O)Nc1cccc2cccnc12 | inconclusive: 25.1 µM [inhibitor, single point] |
| Cc1sc(NC(=O)C2C3CCC(C3)C2C(=O)O)c(C(N)=O)c1-c1ccc(C(C)(C)C)cc1 (centres undefined) | inconclusive: 0.112 µM [inhibitor, full curve, poor fit] |
| COc1ccc(-c2cc3nc(-c4ccccc4)cc(N4CCCC(O)C4)n3n2)cc1 (centres undefined) | inconclusive: 39.8 µM [inhibitor, single point] |
| O=C(c1ccc(=O)oc1)N1CCCc2ccccc21 | inconclusive: 35.5 µM [inhibitor, single point] |
| Cn1c(=O)c2c(SCC(=O)N3CCN(c4ccccc4)CC3)nc(C3CC3)nc2n(C)c1=O | active: 17.8 µM |
| Cc1cc(NC(=O)CS(=O)(=O)c2cn(Cc3ccccc3Cl)c3ccccc23)no1 | inconclusive: 31.6 µM [inhibitor, partial curve] |
| CSCC[C@H](NC(=O)[C@H](CC(C)C)NC(=O)CNC(=O)[C@H](Cc1ccccc1)NC(=O)[C@H](Cc1ccccc1)NC(=O)[C@H](CCC(N)=O)NC(=O)[C@H](CCC(N)=O)NC(=O)[C@@H]1CCCN1C(=O)[C@H](CCCCN)NC(=O)[C@@H]1CCCN1C(=O)[C@@H](N)CCCN=C(N)N)C(N)=O | inactive |
| COc1cc(C(Nc2ccc3c(c2)OCO3)C(=O)NC2CCCCC2)cc(OC)c1OC (centres undefined) | inactive |
| Brc1ccccc1CN1CCC(N2CCCCC2)CC1 | inconclusive: 35.5 µM [inhibitor, single point] |
| COc1ccc(C2CC(c3ccccc3)=NN2C(=O)COC(=O)c2cccnc2Cl)cc1 (centres undefined) | inactive |
| CC12C=C(/C=C/C=C/c3ccco3)C(C)(C1)C(/C=C/c1ccco1)CC2=O (centres undefined) | active: 1.41 µM |
| CCc1c(C#N)c(SCCC(=O)Nc2ccc(F)cc2)nc2c1C(=O)CC(C)(C)C2 | inconclusive: 0.141 µM [inhibitor, full curve, poor fit] |
| CS/C(=N\S(=O)(=O)c1cccs1)NC(=O)CSc1nc2ccccc2s1 | inconclusive: 39.8 µM [inhibitor, single point] |
| N#C/C(C(N)=O)=C1/SC=C(c2ccccc2)N1c1ccccc1 | inconclusive: 0.158 µM [inhibitor, full curve, poor fit] |
| N#CC1(C#N)C(c2ccccc2)OC23CCCCC2C1(C#N)C(=N)O3 (centres undefined) | active: 12.6 µM |
| CC(C)[N+](C)(CCOC(=O)C1c2ccccc2Oc2ccccc21)C(C)C | inconclusive: 0.251 µM [inhibitor, full curve] |
